These are yes or no findings as the source states them, for the method shown. In cells and extracts the contact can be indirect. Some entries that bind do so weakly or less than the wild type.

Protein sequences, listed by entry. Tags and fused reporters are not part of them.
UniProt Q9QZL0: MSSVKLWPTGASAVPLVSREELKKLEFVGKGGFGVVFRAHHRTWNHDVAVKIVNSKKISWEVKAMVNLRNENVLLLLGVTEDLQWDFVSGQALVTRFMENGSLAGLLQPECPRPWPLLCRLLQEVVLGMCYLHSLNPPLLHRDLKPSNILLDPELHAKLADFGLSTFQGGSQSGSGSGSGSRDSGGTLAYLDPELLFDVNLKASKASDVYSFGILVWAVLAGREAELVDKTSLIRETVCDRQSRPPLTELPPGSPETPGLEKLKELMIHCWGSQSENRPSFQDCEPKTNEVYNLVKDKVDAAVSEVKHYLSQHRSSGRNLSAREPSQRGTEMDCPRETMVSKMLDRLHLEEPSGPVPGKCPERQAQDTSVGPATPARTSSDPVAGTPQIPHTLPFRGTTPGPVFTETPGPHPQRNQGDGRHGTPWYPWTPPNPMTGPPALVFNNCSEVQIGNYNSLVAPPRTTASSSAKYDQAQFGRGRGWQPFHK

The target in experiment [1] is RIPK3 (mouse, endogenous) (mouse (endogenous in MEFs and BMDMs)) (UniProt Q9QZL0). As to the kind of experiment: co-IP; complex IIb isolated with RIPK3 antibody from primary BMDMs pretreated with Z-VAD (25 μM) or vehicle for 30 min, then LPS (50 ng/ml); western blot.
For experiment [2] the target is unchanged. As to the kind of experiment: co-IP; complex IIb precipitated with RIPK3 antibodies from Ripk1+/+ and Ripk1K612R/K612R MEFs pretreated with SM-164 (100 nM) or 5Z-7 (200 nM) for 2 h, then mTNFα (100 ng/ml)/Z-VAD (25 μM); western blot.

B1: MLKL (mouse, endogenous) (protein, UniProt Q9D2Y4 1-472)
chain: MDKLGQIIKLGQLIYEQCEKMKYCRKQCQRLGNRVHGLLQPLQRLQAQGKKNLPDDITAALGRFDEVLKEANQQIEKFSKKSHIWKFVSVGNDKILFHEVNEKLRDVWEELLLLLQVYHWNTVSDVSQPASWQQEDRQDAEEDGNENMKVILMQLQISVEEINKTLKQCSLKPTQEIPQDLQIKEIPKEHLGPPWTKLKTSKMSTIYRGEYHRSPVTIKVFNNPQAESVGIVRFTFNDEIKTMKKFDSPNILRIFGICIDQTVKPPEFSIVMEYCELGTLRELLDREKDLTMSVRSLLVLRAARGLYRLHHSETLHRNISSSSFLVAGGYQVKLAGFELSKTQNSISRTAKSTKAERSSSTIYVSPERLKNPFCLYDIKAEIYSFGIVLWEIATGKIPFEGCDSKKIRELVAEDKKQEPVGQDCPELLREIINECRAHEPSQRPSVDGRSLSGRERILERLSAVEESTDKKV
Turning to B1, the binding result in experiment [1] and in experiment [2] was “binds” each time.

Values taken from paper PMC7733462.
